# Several values for one entry are separate records, joined by “and”; a condition that tells them apart may be missing. Equal values may be shown once. Screen size: about 400,000 compounds; about 3,700 (0.93%) were called active. The inconclusive results got no clear call from the source; some entries with a clear call stand among them for comparison. The call rests on the fitted dose curve; in most records, active means well fitted inhibition curve with a large enough effect; inconclusive means small, poorly fitted or top-dose-only effect, or another doubt; inactive means no such curve, though single readings can be large or run the other way. Where the call is inconclusive, the potency comes from a doubtful curve fit.
# The chains behind the UniProt entries cited, without tags or fusion partners. Where a name states a change or a piece, a line headed by the entry shows the natural chain unless it says otherwise.
# UniProt P11473: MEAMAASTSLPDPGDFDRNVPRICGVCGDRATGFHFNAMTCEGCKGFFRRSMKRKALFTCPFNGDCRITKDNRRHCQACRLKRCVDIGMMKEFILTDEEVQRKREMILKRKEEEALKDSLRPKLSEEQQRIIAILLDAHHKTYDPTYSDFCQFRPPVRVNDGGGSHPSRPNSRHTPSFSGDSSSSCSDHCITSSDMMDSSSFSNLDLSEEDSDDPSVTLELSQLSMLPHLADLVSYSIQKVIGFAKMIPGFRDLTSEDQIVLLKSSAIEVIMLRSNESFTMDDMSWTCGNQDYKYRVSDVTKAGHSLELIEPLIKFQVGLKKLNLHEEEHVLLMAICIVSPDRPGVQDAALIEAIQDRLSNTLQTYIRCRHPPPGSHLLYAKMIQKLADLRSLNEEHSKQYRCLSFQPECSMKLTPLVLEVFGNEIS
# Biological target: Vitamin D3 receptor (Homo sapiens) (UniProt P11473)
# Assay: Inhibitors of the vitamin D receptor (VDR): qHTS
# Settings: VDR-SRC2-3 peptide fluorescence polarization, 2 h; max response, negative = inhibition: hits give low values
# Outline: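 Signal is fluorescence polarization, reporting how far test compounds block the interaction of VDR with the SRC2-3 coregulator peptide after a 2 h room-temperature incubation.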
# On the % scale 0 is the no-effect control and ±100 the full control effect; potency means the concentration at half of the fitted maximal effect.
SMILES,Potency,"max response, negative = inhibition"
Cn1ccnc1Sc1ccc(/C=N/NC(=O)c2ccccc2O)cc1[N+](=O)[O-],"inconclusive: 4.47 µM [inhibitor, full curve, poor fit]",
Cc1cc(C)c2c(c1)/C(=C/C(=O)c1ccc(Br)s1)C(=O)N2,"inconclusive: 15.8 µM [inhibitor, full curve]",
COc1ccccc1N1CCN(C(=O)CSc2ncnc3scc(-c4ccccc4)c23)CC1,"inconclusive: 39.8 µM [inhibitor, partial curve, poor fit]",
COc1cccc(CNC(=O)c2nc(Cn3nc(C)c(Br)c3C)no2)c1,,inactive: 4.85%
Cc1ccc(/C=N/NC(=O)c2nnn(-c3nonc3N)c2-c2ccc3c(c2)OCO3)s1,,inactive: 6.98%
CC(C)c1ccc(/C=C/C2=NNC(=O)CC2)cc1,"inconclusive: 39.8 µM [inhibitor, single point]",
O=c1ccc2c(-c3ccccc3S(=O)(=O)O)c3ccc(O)c(O)c3oc-2c1O,active: 35.5 µM,
COc1ccc(/C=C/C(=O)c2cccs2)cc1OC,"inconclusive: 35.5 µM [inhibitor, partial curve]",
CC(=O)Nc1ccccc1NS(=O)(=O)c1cccc([N+](=O)[O-])c1,"inconclusive: 89.1 µM [inhibitor, partial curve, poor fit]",
O=C(O)COc1ccc(/C=C/C(=O)c2ccc(C3CCCCC3)cc2)cc1,"inconclusive: 11.2 µM [inhibitor, full curve, poor fit]",
CCOc1ccc(CN2C(=O)c3ccccc3Sc3ccc(C(=O)NCCCN4CCOCC4)cc32)cc1,"inconclusive: 79.4 µM [inhibitor, partial curve, poor fit]",
Oc1c(Br)cc(Br)cc1C=Nc1cccnc1,"inconclusive: 100 µM [inhibitor, single point]",
CCCOc1ccc(C(=O)N2CCN(c3ccc(N)cc3Cl)CC2)cc1,,inactive: 6.4%
CCc1ccc2c(c1)c1nc(C)sc1n2CC,"inconclusive: 79.4 µM [inhibitor, single point]",
CCN(CC)C(=S)Nc1ccc(Cl)c(Cl)c1,"inconclusive: 89.1 µM [inhibitor, single point]",
COc1ccc(C(=O)Cc2ccc(F)cc2)c(OC)c1,,inactive: 12%
CN(C)c1ccc(C(C[N+](=O)[O-])c2c(N)n(C)c(=O)n(C)c2=O)c(F)c1C#N (stereo not given),"inconclusive: 63.1 µM [inhibitor, partial curve, poor fit]",
NC(=O)C1CCN(C2=C(Cl)C(=O)c3ccccc3C2=O)CC1,"inconclusive: 89.1 µM [inhibitor, single point]",
Cc1ccc(OCCCN2C(=O)C(=O)c3cc(C)ccc32)cc1,"inconclusive: 7.94 µM [inhibitor, full curve, poor fit]",
COc1ccc(-c2cc(-c3cc(OC)ccc3O)[nH]n2)cc1,"inconclusive: 28.2 µM [inhibitor, partial curve, poor fit]",
NS(=O)(=O)c1ccc(CCNCc2cc(Br)ccc2OCc2ccccc2)cc1,,inactive: 8.05%
CNc1nc(-c2ccoc2)nc2ccccc12,"inconclusive: 44.7 µM [inhibitor, partial curve]",

# Reformatted with tabs: part of the list above.
SMILES	Potency	max response, negative = inhibition
Cc1ccc(/C=N/NC(=O)c2nnn(-c3nonc3N)c2-c2ccc3c(c2)OCO3)s1		inactive: 6.98%
CC(C)c1ccc(/C=C/C2=NNC(=O)CC2)cc1	inconclusive: 39.8 µM [inhibitor, single point]	
O=c1ccc2c(-c3ccccc3S(=O)(=O)O)c3ccc(O)c(O)c3oc-2c1O	active: 35.5 µM	

# Entries listed so far that have an aryl thioether with sulfur outside any ring (two):
SMILES,Potency,"max response, negative = inhibition"
Cn1ccnc1Sc1ccc(/C=N/NC(=O)c2ccccc2O)cc1[N+](=O)[O-],"inconclusive: 4.47 µM [inhibitor, full curve, poor fit]",
COc1ccccc1N1CCN(C(=O)CSc2ncnc3scc(-c4ccccc4)c23)CC1,"inconclusive: 39.8 µM [inhibitor, partial curve, poor fit]",

# (further entries)

SMILES,Potency,"max response, negative = inhibition"
O=CNc1ccc2c3c(cccc13)-c1ccccc1-2,"inconclusive: 79.4 µM [inhibitor, single point]",
NC(=O)c1ncn([C@@H]2O[C@H](CO)[C@@H](O)[C@H]2O)c1N,,inactive: 2.01%
O=C(OCc1nnc(-c2ccccc2)o1)c1cc(Cl)ccc1[N+](=O)[O-],"inconclusive: 5.62 µM [inhibitor, partial curve, poor fit]",
O=C(Nc1ccc(Cl)cc1C(=O)O)c1ccc2c(c1)C(=O)N(Cc1ccco1)C2=O,"inconclusive: 89.1 µM [inhibitor, single point]",
COc1cc(OC)cc(C(=O)NCC(=O)OCC(=O)N2CCc3ccccc32)c1,"inconclusive: 8.91 µM [inhibitor, partial curve]",
CC(=O)c1cccc(NC(=O)CCc2nc3cccnc3n2Cc2cccs2)c1,"inconclusive: 89.1 µM [inhibitor, single point]",
O=C(O)CC1SC(=O)N(CC(=O)c2ccccc2)C1=O (stereo not given),"inconclusive: 89.1 µM [inhibitor, single point]",
Cc1cc(O)c(C(=O)/C=C/c2ccccc2)c(=O)o1,"inconclusive: 100 µM [inhibitor, single point]",
O=C(NCCc1ccc(Cl)cc1)C1(c2ccccc2)CC1,,inactive: 1.56%
O=C(/C=C/c1ccccc1Cl)Nc1cccc(O)c1,,inactive: 13.1%
NC(=O)c1c(NC(=O)C2CCCO2)sc2c1CCCCC2 (stereo not given),"inconclusive: 89.1 µM [inhibitor, single point]",
COc1ccc2cc[nH]c2c1,"inconclusive: 89.1 µM [inhibitor, single point]",
O=S(=O)(Nc1nc2ccccc2nc1Cl)c1cccc(C(F)(F)F)c1,"inconclusive: 56.2 µM [inhibitor, single point]",
O=[N+]([O-])c1cc(/C=N/Nc2nc3ccccc3[nH]2)c(O)cc1O,"inconclusive: 100 µM [inhibitor, single point]",
CCOc1cccc2cc(-c3nnc(NCc4ccco4)s3)c(=O)oc12,"inconclusive: 89.1 µM [inhibitor, partial curve, poor fit]",
COc1ccc(N2CCN(C(=O)c3cccc(Br)c3)CC2)c([N+](=O)[O-])c1,"inconclusive: 31.6 µM [inhibitor, single point]",
Cc1ccccc1C1=N/C(=C/c2cccnc2)C(=O)O1,active: 70.8 µM,
COCCCNc1nc2c(c(=O)[nH]c(=O)n2C)n1CC(O)COc1ccc(Cl)cc1 (stereo not given),"inconclusive: 89.1 µM [inhibitor, partial curve, poor fit]",
CCOc1cc(C(=O)OCc2cccc(OC)c2OC)ccc1OCC(=O)N1CCOCC1,"inconclusive: 28.2 µM [inhibitor, single point]",
Cc1cc(NS(=O)(=O)c2ccc(NC(=O)CCCOc3ccccc3C)cc2)nc(C)n1,"inconclusive: 79.4 µM [inhibitor, single point]",
O=C(COC(=O)c1ccccc1[N+](=O)[O-])Nc1nnc(-c2ccccc2)o1,"inconclusive: 5.01 µM [inhibitor, partial curve, poor fit]",
Cc1ccc(C)c(N2CCN(c3ccc4cc(S(=O)(=O)N5CCCCC5)ccc4n3)CC2)c1,"inconclusive: 89.1 µM [inhibitor, partial curve]",

SMILES,Potency,"max response, negative = inhibition"
CCCCCCNC(=O)c1cc(-c2ccco2)nc2ccccc12,"inconclusive: 50.1 µM [inhibitor, partial curve, poor fit]",
Cc1ccc2c(c1)C(c1ccncc1)=NNC(c1ccccc1)=N2,"inconclusive: 89.1 µM [inhibitor, single point]",
CCOC(=O)Oc1ccc(/C=C2\N=C(C)OC2=O)cc1,active: 20 µM,
CCOC(=O)N1CCC(N(CCN(C)C)C(=S)Nc2ccc(Oc3ccccc3)cc2)CC1,,inactive: -4.6%
CC(C)NC(=S)NC(c1ccccc1)(c1ccccc1)c1ccccc1,"inconclusive: 56.2 µM [inhibitor, partial curve, poor fit]",
CC1CCCC(C)N1C(=O)CSc1nc2ccccc2s1 (stereo not given),"inconclusive: 89.1 µM [inhibitor, single point]",
COc1ccc2c(c1)c1c(c(=O)n(-c3cccc(C)c3)c(=O)n1CC(=O)NCCC1=CCCCC1)n2C,,inactive: -10.3%
O=S(=O)(c1ccc(SCCOc2ccc(Cl)cc2)nc1)N1CCCC1,"inconclusive: 35.5 µM [inhibitor, partial curve, poor fit]",
COc1ccc2[nH]cc(CCNC(=O)Nc3cc(C)cc(C)c3)c2c1,,inactive: 14.3%
Cn1c(=S)c2[nH]c(SCCC(C)(C)C)nc2n(C)c1=O,,inactive: -29.7%
CSc1nnc(NC(=O)c2nc(S(=O)(=O)Cc3cccc(C)c3)ncc2Cl)s1,active: 14.1 µM,
O=C(CN1C(=O)NC2(CCCCC2)C1=O)N1CCN(S(=O)(=O)c2ccc(F)c(F)c2F)CC1,"inconclusive: 89.1 µM [inhibitor, single point]",
CCN(c1ccccc1)S(=O)(=O)c1ccc(NC(=O)c2nc(S(C)(=O)=O)ncc2Cl)cc1,active: 15.8 µM and active: 39.8 µM,
Cc1ccc(-c2nc(S(=O)(=O)c3ccc(C)cc3)c(N(C)C)o2)cc1,"inconclusive: 89.1 µM [inhibitor, single point]",
CNS(=O)(=O)c1cc(C(=O)O)ccc1OC,"inconclusive: 39.8 µM [inhibitor, full curve, poor fit]",
CCC(CO)Oc1cc(NC(=O)c2ccc(OC)cc2)c2ncn(C(C)C)c2c1 (stereo not given),"inconclusive: 89.1 µM [inhibitor, partial curve, poor fit]",
Cc1ccccc1-c1nc(-c2ccccn2)no1,,inactive: 11.8%
Cc1ccc(-c2ccc(C3C(C#N)=C(N)Oc4n[nH]c(C)c43)o2)cc1 (stereo not given),"inconclusive: 79.4 µM [inhibitor, single point]",
Cn1sc(NC(=O)c2ccccc2Cl)nc1=O,"inconclusive: 79.4 µM [inhibitor, partial curve, poor fit]",
COc1ccc(/C=N/n2cnc3c([nH]c4ccccc43)c2=O)cc1CO,"inconclusive: 28.2 µM [inhibitor, single point]",
O=C(COc1ccccc1Cl)N1N=C(c2cccs2)CC1c1ccco1 (stereo not given),"inconclusive: 79.4 µM [inhibitor, partial curve, poor fit]",
